Measurements as given in PMC12000498.
These are yes or no findings as the source states them, for the method shown. Binding seen in cells or lysates may run through a third protein. A yes stands for co-enrichment or nearness to the bait. Other partners may have been found.

By UniProt entry, the sequences of proteins in these tests, tags left out.
UniProt Q9Z2G0: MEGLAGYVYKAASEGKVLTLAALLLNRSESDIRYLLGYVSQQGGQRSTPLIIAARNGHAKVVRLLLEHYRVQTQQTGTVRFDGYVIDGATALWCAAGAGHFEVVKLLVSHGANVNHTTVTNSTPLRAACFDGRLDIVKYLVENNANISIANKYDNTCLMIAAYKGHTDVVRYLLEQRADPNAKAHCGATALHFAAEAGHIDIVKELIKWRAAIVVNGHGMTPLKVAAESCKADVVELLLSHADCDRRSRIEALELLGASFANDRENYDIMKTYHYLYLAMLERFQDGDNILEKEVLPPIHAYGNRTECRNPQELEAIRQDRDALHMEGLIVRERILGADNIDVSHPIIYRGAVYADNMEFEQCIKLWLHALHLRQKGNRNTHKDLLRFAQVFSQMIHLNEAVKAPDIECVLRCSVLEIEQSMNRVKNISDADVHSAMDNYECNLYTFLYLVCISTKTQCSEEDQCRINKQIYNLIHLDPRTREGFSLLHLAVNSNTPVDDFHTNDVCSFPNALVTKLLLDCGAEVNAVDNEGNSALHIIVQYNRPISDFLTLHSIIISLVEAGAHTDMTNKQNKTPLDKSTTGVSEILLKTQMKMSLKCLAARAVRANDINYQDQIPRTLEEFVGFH

Biological target: Flag-tagged Fem1b (UniProt Q9Z2G0)
Experiment: affinity purification with mass spectrometry; Flag-Fem1b stably expressed in skeletal cells; lysate in IP buffer immunoprecipitated with anti-Flag affinity gel; eluate resolved by SDS-PAGE, trypsin digest, LC-MS

B1: Pdik1l (skeletal cells) (protein, UniProt Q8QZR7 1-341)
chain: MVSSQPKYDLIREVGRGSYGVVYEAVIRKTSARVAVKKIRCHAPENVELALREFWALSSIKSQHPNVIHLEECILQKDGMVQKMSHGSNSSLYLQLVETSLKGEIAFDPRSAYYLWFVMDFCDGGDMNEYLLSRKPNRKTNTSFMLQLSSALAFLHKNQIIHRDLKPDNILISQSRMDTSDLEPTLKVADFGLSKVCSASGQNPEEPVSVNKCFLSTACGTDFYMAPEVWEGHYTAKADIFALGIIIWAMLERITFIDTETKKELLGSYVKQGTEIVPVGEALLENPKMELLIPVKKKSMNGRMKQLIKEMLAANPQDRPDAFELELRLVQIAFKDSSWET
binding: binds
